According to article PMC5446404:
Results are given in words; binding and its absence hold for the method and conditions named. Binding seen in cells or lysates may run through a third protein.

Biological target: T1, fortilin, endogenous in PC3 cells (human (endogenous in PC3)) (UniProt P13693)
T1 sequence: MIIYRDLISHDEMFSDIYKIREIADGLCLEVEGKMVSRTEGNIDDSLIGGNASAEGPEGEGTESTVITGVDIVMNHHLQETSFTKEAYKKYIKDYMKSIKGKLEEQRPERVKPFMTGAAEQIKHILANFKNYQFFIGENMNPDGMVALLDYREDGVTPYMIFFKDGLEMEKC
Assay: co-IP; cleared total lysates of PC3 cells treated with 2 nM EGF-SubA for 24 h (also TG-treated cells); rabbit monoclonal anti-fortilin (EPR5540) or rabbit IgG, Dynabeads Protein G, washed four times, immunoblot

B1: NQO2, endogenous in PC3 cells (protein, UniProt P16083 1-231)
chain: MAGKKVLIVYAHQEPKSFNGSLKNVAVDELSRQGCTVTVSDLYAMNLEPRATDKDITGTLSNPEVFNYGVETHEAYKQRSLASDITDEQKKVREADLVIFQFPLYWFSVPAILKGWMDRVLCQGFAFDIPGFYDSGLLQGKLALLSVTTGGTAEMYTKTGVNGDSRYFLWPLQHGTLHFCGFKVLAPQISFAPEIASEEERKGMVAAWSQRLQTIWKEEPIPCTAHWHFGQ
Q: For B1, which binding is on record?
A: no binding
